Data: the supplement of paper PMC10849652
The list shows a part of the results.

By UniProt entry, the sequences of proteins in these tests, tags left out. Where a name states a change or a piece, a line headed by the entry shows the natural chain unless it says otherwise.
UniProt Q9NT62, whole entry, looked up: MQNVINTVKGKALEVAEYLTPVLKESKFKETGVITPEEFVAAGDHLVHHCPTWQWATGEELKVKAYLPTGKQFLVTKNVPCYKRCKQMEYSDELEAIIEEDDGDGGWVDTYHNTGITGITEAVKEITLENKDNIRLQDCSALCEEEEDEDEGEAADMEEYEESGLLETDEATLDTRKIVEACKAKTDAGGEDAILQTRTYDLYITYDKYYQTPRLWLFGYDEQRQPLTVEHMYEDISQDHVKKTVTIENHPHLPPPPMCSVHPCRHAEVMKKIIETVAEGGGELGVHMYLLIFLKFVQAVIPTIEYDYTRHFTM
UniProt P25705: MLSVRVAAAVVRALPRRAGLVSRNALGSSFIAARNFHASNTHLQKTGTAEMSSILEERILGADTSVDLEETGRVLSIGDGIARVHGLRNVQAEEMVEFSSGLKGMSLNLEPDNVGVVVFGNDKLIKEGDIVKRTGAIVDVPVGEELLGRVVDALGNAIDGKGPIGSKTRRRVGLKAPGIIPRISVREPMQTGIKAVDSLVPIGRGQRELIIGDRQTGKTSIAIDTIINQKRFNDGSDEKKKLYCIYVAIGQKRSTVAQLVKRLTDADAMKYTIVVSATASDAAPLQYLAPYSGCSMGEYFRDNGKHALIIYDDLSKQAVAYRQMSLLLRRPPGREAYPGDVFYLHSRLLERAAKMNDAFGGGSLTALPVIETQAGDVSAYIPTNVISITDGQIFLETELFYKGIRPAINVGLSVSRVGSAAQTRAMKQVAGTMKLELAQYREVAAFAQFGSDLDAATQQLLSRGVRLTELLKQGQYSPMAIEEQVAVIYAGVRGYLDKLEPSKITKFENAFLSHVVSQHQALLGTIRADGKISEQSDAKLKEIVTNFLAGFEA
UniProt Q8NBF6: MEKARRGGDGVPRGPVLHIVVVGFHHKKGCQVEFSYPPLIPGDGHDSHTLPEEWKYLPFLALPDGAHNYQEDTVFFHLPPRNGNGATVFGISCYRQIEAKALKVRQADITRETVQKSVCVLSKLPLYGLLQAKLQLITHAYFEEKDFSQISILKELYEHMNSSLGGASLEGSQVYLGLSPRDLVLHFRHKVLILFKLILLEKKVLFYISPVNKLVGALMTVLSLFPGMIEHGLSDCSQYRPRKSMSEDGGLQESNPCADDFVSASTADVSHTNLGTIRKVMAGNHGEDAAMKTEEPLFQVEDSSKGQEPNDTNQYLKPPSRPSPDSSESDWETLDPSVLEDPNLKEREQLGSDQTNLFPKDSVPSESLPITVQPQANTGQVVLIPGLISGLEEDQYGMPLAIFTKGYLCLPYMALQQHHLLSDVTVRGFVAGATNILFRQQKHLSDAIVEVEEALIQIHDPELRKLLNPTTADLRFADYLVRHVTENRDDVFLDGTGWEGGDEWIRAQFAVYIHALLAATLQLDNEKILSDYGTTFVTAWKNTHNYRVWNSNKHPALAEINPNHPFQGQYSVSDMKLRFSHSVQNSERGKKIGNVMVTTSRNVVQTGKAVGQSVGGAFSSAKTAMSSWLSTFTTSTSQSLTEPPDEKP
UniProt Q06055: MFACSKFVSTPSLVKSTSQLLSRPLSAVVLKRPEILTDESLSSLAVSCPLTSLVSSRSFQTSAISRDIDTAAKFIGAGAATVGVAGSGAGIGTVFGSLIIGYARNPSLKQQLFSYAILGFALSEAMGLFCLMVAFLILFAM
UniProt Q16864, whole entry, looked up: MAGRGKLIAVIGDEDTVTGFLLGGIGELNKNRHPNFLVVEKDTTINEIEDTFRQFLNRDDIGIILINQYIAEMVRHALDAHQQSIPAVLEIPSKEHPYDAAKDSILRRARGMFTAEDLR
UniProt Q9H7T9: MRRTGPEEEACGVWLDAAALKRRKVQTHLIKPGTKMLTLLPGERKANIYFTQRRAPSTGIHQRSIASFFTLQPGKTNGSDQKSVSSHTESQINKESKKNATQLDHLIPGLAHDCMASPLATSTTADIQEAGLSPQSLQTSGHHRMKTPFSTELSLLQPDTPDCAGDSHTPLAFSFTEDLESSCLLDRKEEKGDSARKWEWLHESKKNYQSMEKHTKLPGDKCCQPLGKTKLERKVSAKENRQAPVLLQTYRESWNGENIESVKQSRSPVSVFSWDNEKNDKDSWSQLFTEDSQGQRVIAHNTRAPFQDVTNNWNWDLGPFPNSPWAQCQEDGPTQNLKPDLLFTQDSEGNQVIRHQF
UniProt Q6UW56: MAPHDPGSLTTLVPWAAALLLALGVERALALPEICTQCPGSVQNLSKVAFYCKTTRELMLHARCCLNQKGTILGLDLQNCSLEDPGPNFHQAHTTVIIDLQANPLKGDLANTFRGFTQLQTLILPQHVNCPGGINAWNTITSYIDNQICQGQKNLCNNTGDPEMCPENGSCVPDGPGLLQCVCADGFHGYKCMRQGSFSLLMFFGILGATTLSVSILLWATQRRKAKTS
UniProt P18847: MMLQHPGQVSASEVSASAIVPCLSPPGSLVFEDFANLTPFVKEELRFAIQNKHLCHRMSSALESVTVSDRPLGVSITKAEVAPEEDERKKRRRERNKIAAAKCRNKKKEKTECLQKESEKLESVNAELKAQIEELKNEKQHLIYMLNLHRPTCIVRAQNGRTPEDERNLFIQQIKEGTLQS
UniProt Q8WWM7: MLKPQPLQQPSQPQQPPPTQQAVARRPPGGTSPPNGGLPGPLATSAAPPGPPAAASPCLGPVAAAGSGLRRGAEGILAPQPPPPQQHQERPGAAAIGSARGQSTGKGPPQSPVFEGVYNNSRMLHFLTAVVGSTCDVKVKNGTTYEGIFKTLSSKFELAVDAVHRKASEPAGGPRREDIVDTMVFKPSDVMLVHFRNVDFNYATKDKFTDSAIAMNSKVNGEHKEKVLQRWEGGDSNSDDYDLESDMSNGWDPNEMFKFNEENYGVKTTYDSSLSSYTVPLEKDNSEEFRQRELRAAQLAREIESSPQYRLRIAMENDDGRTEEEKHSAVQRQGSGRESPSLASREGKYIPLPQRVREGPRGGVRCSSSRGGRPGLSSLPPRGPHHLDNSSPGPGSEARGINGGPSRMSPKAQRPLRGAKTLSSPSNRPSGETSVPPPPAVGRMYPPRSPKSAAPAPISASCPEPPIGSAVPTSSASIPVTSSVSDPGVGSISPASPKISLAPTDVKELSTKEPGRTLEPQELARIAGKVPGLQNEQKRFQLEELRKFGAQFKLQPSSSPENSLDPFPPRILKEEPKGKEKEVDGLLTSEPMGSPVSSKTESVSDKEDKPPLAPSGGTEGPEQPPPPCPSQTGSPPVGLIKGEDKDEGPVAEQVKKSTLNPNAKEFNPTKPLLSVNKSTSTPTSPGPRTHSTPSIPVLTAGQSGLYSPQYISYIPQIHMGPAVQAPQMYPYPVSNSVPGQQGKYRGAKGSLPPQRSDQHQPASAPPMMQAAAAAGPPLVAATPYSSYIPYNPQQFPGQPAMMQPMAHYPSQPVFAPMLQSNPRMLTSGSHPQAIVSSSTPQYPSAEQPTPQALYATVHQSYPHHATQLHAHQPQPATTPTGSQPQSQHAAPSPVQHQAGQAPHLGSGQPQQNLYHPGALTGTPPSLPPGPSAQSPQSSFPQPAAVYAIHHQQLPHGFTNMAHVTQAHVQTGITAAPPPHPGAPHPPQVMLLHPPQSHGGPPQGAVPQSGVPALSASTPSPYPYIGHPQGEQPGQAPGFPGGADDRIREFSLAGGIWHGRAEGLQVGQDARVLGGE
UniProt Q6ZNE5, whole entry, looked up: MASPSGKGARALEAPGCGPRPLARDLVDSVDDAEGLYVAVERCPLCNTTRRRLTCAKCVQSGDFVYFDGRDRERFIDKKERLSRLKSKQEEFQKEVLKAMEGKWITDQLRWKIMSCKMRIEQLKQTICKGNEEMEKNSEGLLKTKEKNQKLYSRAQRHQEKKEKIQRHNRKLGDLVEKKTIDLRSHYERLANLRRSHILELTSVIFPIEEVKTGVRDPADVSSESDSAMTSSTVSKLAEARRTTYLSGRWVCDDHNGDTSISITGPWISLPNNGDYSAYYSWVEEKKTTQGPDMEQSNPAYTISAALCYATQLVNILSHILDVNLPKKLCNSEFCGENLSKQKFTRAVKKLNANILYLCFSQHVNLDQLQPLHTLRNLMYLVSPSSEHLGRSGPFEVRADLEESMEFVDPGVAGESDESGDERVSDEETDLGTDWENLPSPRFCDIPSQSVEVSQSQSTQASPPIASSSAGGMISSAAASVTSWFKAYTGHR
UniProt P23634: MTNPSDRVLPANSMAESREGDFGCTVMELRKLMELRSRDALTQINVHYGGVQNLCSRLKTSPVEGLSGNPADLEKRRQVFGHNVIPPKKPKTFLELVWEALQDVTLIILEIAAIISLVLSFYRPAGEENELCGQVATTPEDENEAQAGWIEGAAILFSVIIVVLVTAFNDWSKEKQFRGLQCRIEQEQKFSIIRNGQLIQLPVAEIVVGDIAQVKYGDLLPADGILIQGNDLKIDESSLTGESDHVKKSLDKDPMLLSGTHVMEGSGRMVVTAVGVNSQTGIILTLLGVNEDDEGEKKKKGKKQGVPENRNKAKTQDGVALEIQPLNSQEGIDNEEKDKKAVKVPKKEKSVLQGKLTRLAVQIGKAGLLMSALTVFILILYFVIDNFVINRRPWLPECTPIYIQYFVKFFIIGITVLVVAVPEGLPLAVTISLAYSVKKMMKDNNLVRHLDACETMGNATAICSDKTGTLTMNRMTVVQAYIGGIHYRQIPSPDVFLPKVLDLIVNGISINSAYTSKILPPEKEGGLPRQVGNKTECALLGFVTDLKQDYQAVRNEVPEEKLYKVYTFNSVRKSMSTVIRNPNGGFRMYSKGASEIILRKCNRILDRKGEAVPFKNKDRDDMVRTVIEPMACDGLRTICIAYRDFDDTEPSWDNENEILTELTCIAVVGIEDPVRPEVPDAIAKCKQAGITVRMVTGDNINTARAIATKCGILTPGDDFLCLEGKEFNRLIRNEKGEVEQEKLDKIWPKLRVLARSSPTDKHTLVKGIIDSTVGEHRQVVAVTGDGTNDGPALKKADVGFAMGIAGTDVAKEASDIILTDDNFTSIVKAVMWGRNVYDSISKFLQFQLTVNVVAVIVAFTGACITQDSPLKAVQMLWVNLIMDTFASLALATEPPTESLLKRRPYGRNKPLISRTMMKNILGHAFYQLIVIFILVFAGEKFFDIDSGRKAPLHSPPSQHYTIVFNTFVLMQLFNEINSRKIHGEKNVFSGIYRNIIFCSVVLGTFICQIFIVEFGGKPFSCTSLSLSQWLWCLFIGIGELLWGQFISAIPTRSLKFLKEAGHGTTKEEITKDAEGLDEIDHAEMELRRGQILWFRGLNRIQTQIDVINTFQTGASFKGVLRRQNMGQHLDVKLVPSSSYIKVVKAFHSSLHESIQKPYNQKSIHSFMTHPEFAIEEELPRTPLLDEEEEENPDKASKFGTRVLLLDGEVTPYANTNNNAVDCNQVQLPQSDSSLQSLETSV

Assays:
Assay in all cases: log2 fold change, soluble protein after heating vs DMSO (PISA); higher = thermal stabilisation; K562 lysate, 10 uM; active = over 0.2 and 3.5 SD of the protein, either way, in both replicates (recomputed)
vemurafenib = compound: CCCS(=O)(=O)Nc1ccc(F)c(C(=O)c2c[nH]c3ncc(-c4ccc(Cl)cc4)cc23)c1F [vemurafenib]
Procedure, shortened: (§1)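 Quantification was by TMTpro 16plex LC-MS/MS with equalised channel sums, applied to the supernatant after 21,000xg for 90 min. Samples were crude K562 extract at 1 mg/mL protein in PBS pH 7.4 with 1 mM MgCl2, treated with 10 μM compound for 30 min, heated for 3 min across 48°C-58°C, pooled and brought to 0.5% NP-40 at 4°C. Values are log-two fold changes in thermal stability relative to solvent controls, from duplicates.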

[1] = compound: CCCS(=O)(=O)Nc1ccc(F)c(C(=O)c2c[nH]c3ncc(Cl)cc23)c1F
Procedure, shortened: as §1

barasertib = compound: CCN(CCCOc1ccc2c(Nc3cc(CC(=O)Nc4cccc(F)c4)[nH]n3)ncnc2c1)CCOP(=O)(O)O [barasertib]
Procedure, shortened: as §1

[2] = compound: CC[C@@H]1C(=O)N(C)c2cnc(Nc3ccc(C(=O)NC4CCN(C)CC4)cc3OC)nc2N1C1CCCC1
Procedure, shortened: as §1

volasertib = compound: CC[C@@H]1C(=O)N(C)c2cnc(Nc3ccc(C(=O)N[C@H]4CC[C@H](N5CCN(CC6CC6)CC5)CC4)cc3OC)nc2N1C(C)C [volasertib]
Procedure, shortened: as §1

[3] = compound: CCn1c(C(=O)N(C2CC2)C2CC2)cc2c3c(ncn3C)c(Nc3cc(C)n(C)n3)nc21
Procedure, shortened: as §1

[4] = compound: CCn1cc(-c2ccnc3[nH]c(-c4cccc(CN(C)C)c4)cc23)c(-c2ccc(NC(=O)N(C)C)cc2)n1
Procedure, shortened: as §1

[5] = compound: CN1CCC(CNc2ccc3ncc(-c4cccc(OC(F)(F)F)c4)n3n2)CC1
Procedure, shortened: as §1

saracatinib = compound: CN1CCN(CCOc2cc(OC3CCOCC3)c3c(Nc4c(Cl)ccc5c4OCO5)ncnc3c2)CC1 [saracatinib]
Procedure, shortened: as §1

sotrastaurin = compound: CN1CCN(c2nc(C3=C(c4c[nH]c5ccccc45)C(=O)NC3=O)c3ccccc3n2)CC1 [sotrastaurin]
Procedure, shortened: as §1

alvocidib = compound: CN1CC[C@H](c2c(O)cc(O)c3c(=O)cc(-c4ccccc4Cl)oc23)[C@H](O)C1 [alvocidib]
Procedure, shortened: as §1

Tubastatin A = compound: CN1CCc2c(c3ccccc3n2Cc2ccc(C(=O)NO)cc2)C1 [Tubastatin A]
Procedure, shortened: as §1

[6] = compound: CNC(=O)C1=CC=CC=C1NC2=NC(=NC=C2Cl)NC3=C(C=C(C=C3)N4CCOCC4)OC
Procedure, shortened: as §1

defactinib = compound: CNC(=O)c1ccc(Nc2ncc(C(F)(F)F)c(NCc3nccnc3N(C)S(C)(=O)=O)n2)cc1 [defactinib]
Procedure, shortened: as §1

[7] = compound: CNc1nc(-c2ccc3c(N)n[nH]c3c2)cc(N2C[C@@H](C(=O)NC3CCCCC3)CC[C@H]2C)n1
Procedure, shortened: as §1

encorafenib = compound: COC(=O)N[C@@H](C)CNc1nccc(-c2cn(C(C)C)nc2-c2cc(Cl)cc(NS(C)(=O)=O)c2F)n1 [encorafenib]
Procedure, shortened: as §1

[8] = compound: COC(=O)[C@H](CCSC)NC(=O)C1=C(C=C(C=C1)NC[C@H](CS)N)C2=CC=CC=C2
Procedure, shortened: as §1

alisertib = compound: COc1cc(Nc2ncc3c(n2)-c2ccc(Cl)cc2C(c2c(F)cccc2OC)=NC3)ccc1C(=O)O [alisertib]
Procedure, shortened: as §1

[9] = compound: COc1cc2nc(-c3cc(F)ccc3O)nc(N[C@@H]3CNC[C@H]3C(C)(C)O)c2cc1OC
Procedure, shortened: as §1

gefitinib = compound: COc1cc2ncnc(Nc3ccc(F)c(Cl)c3)c2cc1OCCCN1CCOCC1 [gefitinib]
Procedure, shortened: as §1

Measured: log2 fold change

ATG3 (UniProt Q9NT62)
inactive: vemurafenib -0.086 | [1] 0.005 | barasertib -0.086 | [2] -0.089 | volasertib -0.008 | [3] 0.014 | [4] -0.041 | [5] 0.017 | saracatinib -0.002 | sotrastaurin -0.021 | alvocidib -0.026 | Tubastatin A 0.014 | [6] 0.032 | defactinib -0.016 | [7] -0.049 | encorafenib 0.031 | [8] -0.047 | alisertib 0.01 | [9] 0.001 | gefitinib -0.006

ATP5F1A (UniProt P25705)
inactive: vemurafenib -0.018 | [1] -0.012 | barasertib -0.008 | [2] 0.001 | volasertib 0.026 | [3] 0.004 | [4] 0.036 | [5] 0.002 | saracatinib -0.064 | sotrastaurin 0.006 | alvocidib 0.017 | Tubastatin A 0.06 | [6] -0.033 | defactinib -0.008 | [7] -0.005 | encorafenib 0 | [8] -0.024 | alisertib 0.003 | [9] 0.017 | gefitinib 0.003

AVL9 (UniProt Q8NBF6)
inactive: vemurafenib 0.007 | [1] 0.037 | barasertib -0.006 | [2] 0.052 | volasertib 0.003 | [3] -0.011 | [4] -0.1 | [5] 0.123 | saracatinib 0.017 | sotrastaurin 0.022 | alvocidib -0.047 | Tubastatin A 0.027 | [6] 0.006 | defactinib -0.024 | [7] 0.02 | encorafenib 0.024 | [8] -0.02 | alisertib -0.019 | [9] 0.026 | gefitinib 0.036

ATP5MC2 isoform 2 (UniProt Q06055)
inactive: vemurafenib 0.038 | [1] 0.083 | barasertib 0.015 | [2] -0.005 | volasertib 0.049 | [3] -0.088 | [4] -0.243 | [5] 0.078 | saracatinib 0 | sotrastaurin 0.014 | alvocidib -0.032 | Tubastatin A 0.011 | [6] -0.024 | defactinib -0.029 | [7] 0.081 | encorafenib 0.014 | [8] -0.073 | alisertib -0.026 | [9] -0.011 | gefitinib -0.036

ATXN2 (UniProt F8WB05)
inactive: vemurafenib -0.153 | [1] -0.024 | barasertib 0.057 | [2] -0.013 | volasertib -0.087 | [3] -0.005 | [4] 0.094 | [5] -0.004 | saracatinib 0.05 | sotrastaurin 0.086 | alvocidib -0.051 | Tubastatin A 0.23 | [6] 0.101 | defactinib -0.063 | [7] -0.03 | encorafenib -0.033 | [8] 0.023 | [9] 0.033

ATP6V1F isoform 2 (UniProt Q16864)
inactive: vemurafenib -0.029 | [1] 0.004 | barasertib 0.086 | [2] 0.074 | volasertib 0.052 | [3] -0.006 | [4] 0.044 | [5] -0.17 | saracatinib 0.044 | sotrastaurin -0.004 | alvocidib 0.217 | Tubastatin A 0.12 | [6] 0.034 | defactinib 0.329 | [7] -0.056 | encorafenib 0.068 | [8] -0.02 | alisertib -0.02 | [9] -0.126 | gefitinib -0.141

AUNIP isoform 2 (UniProt Q9H7T9)
inactive: vemurafenib -0.11 | barasertib 0.044 | [2] -0.163 | [3] 0.171 | [4] -0.044 | [5] 0.01 | saracatinib 0.002 | sotrastaurin -0.002 | alvocidib 0.086 | Tubastatin A -0.148 | [6] 0.128 | defactinib 0.065 | [7] -0.017 | encorafenib 0.03 | [8] -0.189

ATRAID isoform 3 (UniProt Q6UW56)
inactive: vemurafenib 0.067 | [1] 0.049 | [2] 0.079 | volasertib -0.014 | [3] -0.098 | saracatinib 0.042 | sotrastaurin 0.002 | Tubastatin A -0.022 | [6] -0.021 | defactinib -0.018 | [7] -0.019 | encorafenib -0.008 | [8] -0.066 | alisertib 0.015 | [9] 0.03 | gefitinib 0.029

ATF3 (UniProt P18847)
inactive: vemurafenib -0.032 | [2] 0.013 | [3] 0.004 | [4] -0.476 | [5] 0.169 | saracatinib -0.036 | sotrastaurin -0.02 | alvocidib -0.128 | Tubastatin A 0.025 | [6] 0.082 | defactinib -0.095 | [7] 0.098 | encorafenib 0.037 | [8] 0.111 | alisertib -0.15 | gefitinib 0.117

ATXN2L (UniProt Q8WWM7)
inactive: vemurafenib -0.075 | barasertib -0.083 | [2] -0.019 | [3] -0.017 | [4] -0.017 | [5] 0 | saracatinib -0.136 | sotrastaurin -0.019 | alvocidib 0 | Tubastatin A 0.038 | [6] 0.147 | defactinib 0.043 | [7] 0.027 | encorafenib 0.07 | [8] 0.023 | alisertib -0.161 | gefitinib 0.077

ATG14 (UniProt Q6ZNE5)
inactive: vemurafenib 0.102 | barasertib -0.145 | [2] 0.053 | saracatinib 0.009 | [6] -0.122 | defactinib 0.119 | [7] -0.061 | encorafenib -0.321 | [8] 0.04 | alisertib 0.015 | gefitinib 0.207

Two entries picked at random from the list so far, as already listed:
ATG14 (UniProt Q6ZNE5)
inactive: vemurafenib 0.102 | barasertib -0.145 | [2] 0.053 | saracatinib 0.009 | [6] -0.122 | defactinib 0.119 | [7] -0.061 | encorafenib -0.321 | [8] 0.04 | alisertib 0.015 | gefitinib 0.207

ATRAID isoform 3 (UniProt Q6UW56)
inactive: vemurafenib 0.067 | [1] 0.049 | [2] 0.079 | volasertib -0.014 | [3] -0.098 | saracatinib 0.042 | sotrastaurin 0.002 | Tubastatin A -0.022 | [6] -0.021 | defactinib -0.018 | [7] -0.019 | encorafenib -0.008 | [8] -0.066 | alisertib 0.015 | [9] 0.03 | gefitinib 0.029

Following part:

ATP2B4 (UniProt P23634)
inactive: vemurafenib 0.002 | [1] -0.002 | barasertib 0.026 | [2] -0.027 | volasertib -0.004 | [3] -0.019 | [4] -0.185 | [5] 0.145 | saracatinib 0.024 | sotrastaurin 0.009 | alvocidib -0.116 | Tubastatin A 0.015 | [6] -0.006 | defactinib -0.043 | [7] 0.001 | encorafenib 0.021 | [8] -0.041 | alisertib -0.104 | [9] 0.009 | gefitinib 0.023
